Data reported in patent US20020037514.
Construct, isoform or probe ends are uncertain for at least one entry. Results from cells or extracts need not show a direct contact.

Chains of the proteins cited; added tags and fusions are not shown. Chains listed by the source or under a name are the forms on record and can include a tag or linker.
RARα-V5/RXRγ heterodimer (Homo sapiens), one chain, as listed by the source, chain 2 of 2: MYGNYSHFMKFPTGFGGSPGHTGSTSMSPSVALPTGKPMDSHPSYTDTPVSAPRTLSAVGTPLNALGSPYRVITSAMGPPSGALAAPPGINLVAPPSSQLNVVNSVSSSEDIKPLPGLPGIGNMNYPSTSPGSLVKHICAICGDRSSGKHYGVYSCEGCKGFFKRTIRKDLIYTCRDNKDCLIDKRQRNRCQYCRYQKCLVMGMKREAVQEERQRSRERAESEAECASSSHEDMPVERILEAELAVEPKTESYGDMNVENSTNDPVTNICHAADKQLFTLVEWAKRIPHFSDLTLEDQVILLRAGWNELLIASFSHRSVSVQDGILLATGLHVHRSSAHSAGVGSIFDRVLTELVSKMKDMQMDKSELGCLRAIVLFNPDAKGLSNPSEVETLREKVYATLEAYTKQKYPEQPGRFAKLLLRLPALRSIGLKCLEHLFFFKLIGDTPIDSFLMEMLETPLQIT
RARα-V5/RXRγ heterodimer (Homo sapiens), one chain, as listed by the source, chain 1 of 2: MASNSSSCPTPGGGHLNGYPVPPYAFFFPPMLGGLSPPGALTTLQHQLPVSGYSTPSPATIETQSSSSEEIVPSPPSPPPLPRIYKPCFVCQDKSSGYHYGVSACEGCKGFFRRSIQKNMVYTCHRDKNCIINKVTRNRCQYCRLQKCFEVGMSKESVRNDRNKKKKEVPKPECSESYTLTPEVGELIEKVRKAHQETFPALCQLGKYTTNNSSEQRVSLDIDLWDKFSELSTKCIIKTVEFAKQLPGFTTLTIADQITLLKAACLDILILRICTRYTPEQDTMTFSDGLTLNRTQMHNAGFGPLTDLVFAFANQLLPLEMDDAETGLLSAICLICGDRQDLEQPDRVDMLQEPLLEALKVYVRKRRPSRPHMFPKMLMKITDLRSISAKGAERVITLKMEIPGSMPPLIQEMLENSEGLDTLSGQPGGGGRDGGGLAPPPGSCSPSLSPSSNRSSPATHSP

Test system: RARα-V5/RXRγ heterodimer (Homo sapiens)
Experiment: binding assay
Details: co-IP ternary complex; ATRA-induced SRC-1 and ACTR recruitment; indirect; protein in a lysate after overexpression; protein details: RARα C-terminal V5, CV-1 lysate

AGCTTTCAGGTCACCAGGAGGTCAGAA (double strand) [DR-5 RARE]
binding result: binds
